Measurements reported in the supplement of paper PMC6411743.
± gives the standard deviation of the averaged measurements. The list shows a part of the results, in another mix than the full data.

Amino acid sequences for entries named in this document (tags omitted). A change or cut given only in a name is not applied to a line headed by its entry.
UniProt Q504Q3: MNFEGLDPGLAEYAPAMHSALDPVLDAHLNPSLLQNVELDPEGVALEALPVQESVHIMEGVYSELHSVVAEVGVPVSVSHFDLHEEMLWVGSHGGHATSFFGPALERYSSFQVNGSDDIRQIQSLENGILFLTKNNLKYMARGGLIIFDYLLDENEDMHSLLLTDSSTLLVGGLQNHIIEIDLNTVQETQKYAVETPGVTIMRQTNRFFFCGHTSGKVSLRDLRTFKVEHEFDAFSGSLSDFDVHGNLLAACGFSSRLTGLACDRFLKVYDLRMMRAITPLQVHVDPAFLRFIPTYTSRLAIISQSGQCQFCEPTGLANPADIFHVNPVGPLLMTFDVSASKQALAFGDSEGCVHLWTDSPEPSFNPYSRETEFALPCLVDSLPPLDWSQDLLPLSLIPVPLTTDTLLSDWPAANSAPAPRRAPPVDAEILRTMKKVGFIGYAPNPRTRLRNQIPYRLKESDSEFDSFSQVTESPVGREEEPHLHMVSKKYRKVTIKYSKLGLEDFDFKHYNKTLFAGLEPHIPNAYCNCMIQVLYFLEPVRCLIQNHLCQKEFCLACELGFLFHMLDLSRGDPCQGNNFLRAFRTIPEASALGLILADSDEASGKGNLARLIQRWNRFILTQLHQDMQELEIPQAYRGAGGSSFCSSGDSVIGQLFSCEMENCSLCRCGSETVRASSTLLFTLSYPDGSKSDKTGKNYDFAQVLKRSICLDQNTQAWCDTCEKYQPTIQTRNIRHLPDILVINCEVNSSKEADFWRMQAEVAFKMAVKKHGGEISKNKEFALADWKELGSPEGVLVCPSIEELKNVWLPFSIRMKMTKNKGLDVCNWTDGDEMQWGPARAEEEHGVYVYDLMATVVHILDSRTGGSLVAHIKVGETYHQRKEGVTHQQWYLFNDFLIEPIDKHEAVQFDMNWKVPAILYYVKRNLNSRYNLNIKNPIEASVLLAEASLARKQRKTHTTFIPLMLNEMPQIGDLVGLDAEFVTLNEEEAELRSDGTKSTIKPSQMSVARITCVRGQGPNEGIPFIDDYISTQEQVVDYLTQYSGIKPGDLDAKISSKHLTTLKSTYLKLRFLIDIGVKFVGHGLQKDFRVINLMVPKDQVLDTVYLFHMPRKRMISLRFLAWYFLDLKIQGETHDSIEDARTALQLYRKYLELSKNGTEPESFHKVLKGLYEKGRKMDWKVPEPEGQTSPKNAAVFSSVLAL
UniProt Q4VC31: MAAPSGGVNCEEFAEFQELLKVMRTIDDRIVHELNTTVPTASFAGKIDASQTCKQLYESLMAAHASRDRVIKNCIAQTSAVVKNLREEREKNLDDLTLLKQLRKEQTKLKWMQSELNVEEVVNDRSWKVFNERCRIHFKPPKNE
UniProt Q16222: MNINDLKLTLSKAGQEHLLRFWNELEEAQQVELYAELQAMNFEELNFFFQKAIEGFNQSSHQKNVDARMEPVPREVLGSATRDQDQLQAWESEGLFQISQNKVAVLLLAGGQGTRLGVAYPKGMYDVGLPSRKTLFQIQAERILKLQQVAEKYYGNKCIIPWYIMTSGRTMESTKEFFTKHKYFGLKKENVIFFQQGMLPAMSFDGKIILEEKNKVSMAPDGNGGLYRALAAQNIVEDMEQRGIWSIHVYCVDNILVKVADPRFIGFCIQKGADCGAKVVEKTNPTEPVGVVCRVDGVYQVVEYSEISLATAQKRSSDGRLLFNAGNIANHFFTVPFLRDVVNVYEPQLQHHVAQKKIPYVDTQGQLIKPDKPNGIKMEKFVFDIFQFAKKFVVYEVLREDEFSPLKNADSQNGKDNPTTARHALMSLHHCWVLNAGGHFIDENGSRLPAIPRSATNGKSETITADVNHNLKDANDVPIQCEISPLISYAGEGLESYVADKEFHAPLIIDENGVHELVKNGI
UniProt Q9NZJ6: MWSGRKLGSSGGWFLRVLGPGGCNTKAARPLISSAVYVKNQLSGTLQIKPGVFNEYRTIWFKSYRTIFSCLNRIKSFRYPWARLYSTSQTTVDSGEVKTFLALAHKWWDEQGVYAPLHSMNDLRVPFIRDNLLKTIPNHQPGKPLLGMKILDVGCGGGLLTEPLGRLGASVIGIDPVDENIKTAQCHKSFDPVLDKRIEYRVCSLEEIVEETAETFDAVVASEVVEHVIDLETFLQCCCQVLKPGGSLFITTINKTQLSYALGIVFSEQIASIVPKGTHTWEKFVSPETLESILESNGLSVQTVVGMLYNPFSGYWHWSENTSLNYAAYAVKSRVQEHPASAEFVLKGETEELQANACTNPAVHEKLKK
UniProt Q3SXM5: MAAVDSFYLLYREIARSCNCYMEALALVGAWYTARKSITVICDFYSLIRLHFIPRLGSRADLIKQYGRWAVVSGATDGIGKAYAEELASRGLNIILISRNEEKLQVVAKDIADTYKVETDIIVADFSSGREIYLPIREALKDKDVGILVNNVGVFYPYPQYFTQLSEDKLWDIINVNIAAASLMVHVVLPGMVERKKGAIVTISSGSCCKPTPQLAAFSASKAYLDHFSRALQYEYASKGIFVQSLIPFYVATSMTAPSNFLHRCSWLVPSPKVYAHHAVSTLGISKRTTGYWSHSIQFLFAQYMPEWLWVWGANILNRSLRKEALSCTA
UniProt Q92598: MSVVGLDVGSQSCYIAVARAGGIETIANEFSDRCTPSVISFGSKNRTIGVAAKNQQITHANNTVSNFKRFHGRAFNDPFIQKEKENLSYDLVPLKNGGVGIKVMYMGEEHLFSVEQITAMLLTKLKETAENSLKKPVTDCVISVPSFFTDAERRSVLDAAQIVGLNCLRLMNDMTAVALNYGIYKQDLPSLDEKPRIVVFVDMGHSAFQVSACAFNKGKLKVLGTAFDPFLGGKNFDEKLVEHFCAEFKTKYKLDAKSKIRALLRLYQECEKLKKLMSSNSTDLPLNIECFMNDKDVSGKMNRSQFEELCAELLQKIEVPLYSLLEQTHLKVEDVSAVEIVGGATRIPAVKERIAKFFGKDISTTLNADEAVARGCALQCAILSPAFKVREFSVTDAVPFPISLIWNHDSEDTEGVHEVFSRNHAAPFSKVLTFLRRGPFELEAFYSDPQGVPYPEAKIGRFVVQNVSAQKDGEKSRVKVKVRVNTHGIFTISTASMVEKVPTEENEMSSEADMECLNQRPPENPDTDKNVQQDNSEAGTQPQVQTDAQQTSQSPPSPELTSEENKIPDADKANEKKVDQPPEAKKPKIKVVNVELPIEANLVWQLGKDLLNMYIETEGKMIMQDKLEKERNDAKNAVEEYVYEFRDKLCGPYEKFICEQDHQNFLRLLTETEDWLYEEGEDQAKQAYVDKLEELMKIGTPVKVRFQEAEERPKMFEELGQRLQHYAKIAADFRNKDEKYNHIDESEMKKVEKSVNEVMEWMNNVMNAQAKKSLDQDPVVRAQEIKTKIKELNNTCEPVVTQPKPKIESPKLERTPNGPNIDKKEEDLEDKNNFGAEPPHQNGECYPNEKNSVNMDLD
UniProt Q15777: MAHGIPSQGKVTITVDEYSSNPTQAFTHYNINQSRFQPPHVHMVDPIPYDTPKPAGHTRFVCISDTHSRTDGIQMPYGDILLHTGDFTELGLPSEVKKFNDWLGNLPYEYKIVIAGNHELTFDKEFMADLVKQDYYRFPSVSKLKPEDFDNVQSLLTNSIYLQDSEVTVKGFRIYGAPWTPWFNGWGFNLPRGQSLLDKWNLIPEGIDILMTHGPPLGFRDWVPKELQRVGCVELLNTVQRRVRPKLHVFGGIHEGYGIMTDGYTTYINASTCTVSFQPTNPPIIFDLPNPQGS
UniProt Q16539, whole entry: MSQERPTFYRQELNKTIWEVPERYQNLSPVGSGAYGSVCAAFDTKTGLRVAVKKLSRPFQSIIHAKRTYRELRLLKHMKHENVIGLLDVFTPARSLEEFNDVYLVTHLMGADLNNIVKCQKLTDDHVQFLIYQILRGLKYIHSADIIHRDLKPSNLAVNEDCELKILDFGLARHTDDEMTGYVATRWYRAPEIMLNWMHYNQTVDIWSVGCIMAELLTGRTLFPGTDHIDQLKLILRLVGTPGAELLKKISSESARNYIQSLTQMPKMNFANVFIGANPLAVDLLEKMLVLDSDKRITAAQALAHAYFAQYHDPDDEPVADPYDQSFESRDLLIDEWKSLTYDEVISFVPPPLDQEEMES
UniProt Q2KHT3: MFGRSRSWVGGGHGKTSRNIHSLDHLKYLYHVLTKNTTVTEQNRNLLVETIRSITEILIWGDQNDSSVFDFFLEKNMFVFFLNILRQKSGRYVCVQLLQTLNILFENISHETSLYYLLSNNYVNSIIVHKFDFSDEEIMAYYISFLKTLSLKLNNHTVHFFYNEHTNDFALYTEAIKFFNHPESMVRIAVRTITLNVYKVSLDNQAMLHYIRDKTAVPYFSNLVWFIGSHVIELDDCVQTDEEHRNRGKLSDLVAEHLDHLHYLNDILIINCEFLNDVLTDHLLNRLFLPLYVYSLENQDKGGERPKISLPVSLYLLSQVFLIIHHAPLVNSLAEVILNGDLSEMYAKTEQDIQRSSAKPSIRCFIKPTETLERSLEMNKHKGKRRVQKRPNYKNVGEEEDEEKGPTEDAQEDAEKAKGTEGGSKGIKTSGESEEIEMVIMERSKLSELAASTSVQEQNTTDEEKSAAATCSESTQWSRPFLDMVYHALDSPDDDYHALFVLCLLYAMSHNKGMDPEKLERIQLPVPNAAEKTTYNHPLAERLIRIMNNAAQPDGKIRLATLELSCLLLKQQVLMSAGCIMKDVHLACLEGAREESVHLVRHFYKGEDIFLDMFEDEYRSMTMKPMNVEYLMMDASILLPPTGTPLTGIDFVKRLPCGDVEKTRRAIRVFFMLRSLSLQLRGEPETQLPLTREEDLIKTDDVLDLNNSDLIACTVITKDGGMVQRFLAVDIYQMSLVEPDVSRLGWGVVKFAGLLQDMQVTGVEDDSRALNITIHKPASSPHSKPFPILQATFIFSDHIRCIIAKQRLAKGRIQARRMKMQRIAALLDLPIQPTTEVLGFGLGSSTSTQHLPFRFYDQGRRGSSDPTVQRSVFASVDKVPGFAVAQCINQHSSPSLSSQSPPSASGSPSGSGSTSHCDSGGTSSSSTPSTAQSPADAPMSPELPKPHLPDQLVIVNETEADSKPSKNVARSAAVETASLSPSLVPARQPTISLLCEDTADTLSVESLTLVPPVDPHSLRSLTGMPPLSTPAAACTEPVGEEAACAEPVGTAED
UniProt Q5T5X7: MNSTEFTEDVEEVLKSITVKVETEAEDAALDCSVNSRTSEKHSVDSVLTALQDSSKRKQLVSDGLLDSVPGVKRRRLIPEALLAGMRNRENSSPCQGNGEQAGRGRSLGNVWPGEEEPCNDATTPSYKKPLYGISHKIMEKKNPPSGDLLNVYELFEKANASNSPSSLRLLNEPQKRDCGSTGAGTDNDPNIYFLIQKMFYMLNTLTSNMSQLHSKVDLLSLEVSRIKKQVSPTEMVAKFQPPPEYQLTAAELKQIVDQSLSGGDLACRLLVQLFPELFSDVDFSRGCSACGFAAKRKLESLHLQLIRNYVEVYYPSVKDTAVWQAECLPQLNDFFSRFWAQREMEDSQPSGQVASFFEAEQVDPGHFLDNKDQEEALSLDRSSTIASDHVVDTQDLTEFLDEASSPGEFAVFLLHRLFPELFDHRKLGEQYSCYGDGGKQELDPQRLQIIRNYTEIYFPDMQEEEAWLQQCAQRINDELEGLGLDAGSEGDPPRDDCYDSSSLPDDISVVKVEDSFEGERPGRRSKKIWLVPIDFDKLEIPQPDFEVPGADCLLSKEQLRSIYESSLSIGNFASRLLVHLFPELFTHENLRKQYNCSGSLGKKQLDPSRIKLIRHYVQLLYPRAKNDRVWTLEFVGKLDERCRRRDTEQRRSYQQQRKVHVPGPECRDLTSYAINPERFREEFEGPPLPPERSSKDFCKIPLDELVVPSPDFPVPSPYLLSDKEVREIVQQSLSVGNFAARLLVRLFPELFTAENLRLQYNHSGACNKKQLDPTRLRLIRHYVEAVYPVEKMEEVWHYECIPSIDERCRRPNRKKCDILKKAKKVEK
UniProt Q4G176: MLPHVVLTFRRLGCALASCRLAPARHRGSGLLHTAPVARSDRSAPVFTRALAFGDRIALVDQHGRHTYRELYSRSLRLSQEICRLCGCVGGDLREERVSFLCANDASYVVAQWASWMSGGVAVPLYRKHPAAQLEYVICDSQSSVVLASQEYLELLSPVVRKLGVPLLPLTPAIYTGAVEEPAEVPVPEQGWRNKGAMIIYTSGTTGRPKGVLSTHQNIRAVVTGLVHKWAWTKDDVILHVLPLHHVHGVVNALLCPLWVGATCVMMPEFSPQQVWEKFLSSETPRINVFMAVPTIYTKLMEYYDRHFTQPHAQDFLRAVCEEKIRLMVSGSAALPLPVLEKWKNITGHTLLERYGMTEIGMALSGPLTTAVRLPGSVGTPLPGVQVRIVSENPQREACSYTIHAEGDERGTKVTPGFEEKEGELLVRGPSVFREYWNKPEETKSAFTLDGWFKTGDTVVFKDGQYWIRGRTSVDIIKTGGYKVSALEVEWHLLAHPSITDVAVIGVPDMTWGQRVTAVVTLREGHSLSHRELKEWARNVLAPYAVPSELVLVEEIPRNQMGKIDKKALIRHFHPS

compound: Nc1ncnc2c1ncn2[C@@H]1O[C@H](COP(=O)(O)OP(=O)(O)NP(=O)(O)O)[C@@H](O)[C@H]1O [adenylyl imidodiphosphate]; assay: NP40-soluble protein abundance relative to vehicle (solubility fold change) (ratio); higher = more soluble protein in presence of AMP-PNP; conditions: concentration: 1mM
Outline: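 Eight concentrations, 0.1 to 10 mM, were tested on Jurkat crude lysate for 10 min at room temperature and then 3 min at 37 °C, in three independent experiments. The lysate was solubilised with 0.8% NP40 and benzonase, ultracentrifuged, and the supernatant TMT-labelled for LC-MS/MS. Each value is the fold change against the detergent-processed vehicle in its own replicate, from vsn-normalised intensities.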

Target	NP40-soluble protein abundance
UniProt Q5SQI0 and related entries	1 ± 0.024
UniProt Q4G0J3 and related entries	1.02 ± 0.055
UniProt Q5T0F9-2	1.05 ± 0.055
UniProt Q5JTH9 and related entries	1.017 ± 0.0055
BOLA3 (UniProt Q53S33)	0.948 ± 0.016
UniProt Q5H8A4-5	0.979 ± 0.011
UniProt Q504Q3 and related entries	0.993 ± 0.044
UniProt Q5TDH0 and related entries	1 ± 0.017
UniProt Q15750 and related entries	1.03 ± 0.023
HERC1 (UniProt Q15751)	0.931 ± 0.057
UniProt Q5T5C0 and related entries	1.014 ± 0.0016
HS1BP3 (UniProt Q53T59)	1.008 ± 0.0059
PGGHG (UniProt Q32M88)	1.008 ± 0.009
ZC3H12A (UniProt Q5D1E8)	1.01 ± 0.013
CCDC58 (UniProt Q4VC31)	1.01 ± 0.029
GRIPAP1 (UniProt Q4V328)	1.02 ± 0.013
UniProt Q16222 and related entries	0.972 ± 0.016
UniProt Q5PSV4 and related entries	1.06 ± 0.023

Target	NP40-soluble protein abundance
CCDC6 (UniProt Q16204)	0.993 ± 0.023
Q5T063 and related entries (UniProt Q9NZJ6)	0.9959 ± 0.0042
UniProt Q1ED39	1.03 ± 0.031
UniProt Q53H47 and related entries	1.017 ± 0.0058
UniProt Q4VC05 and related entries	1.03 ± 0.047
Q5JVZ5 and related entries (UniProt Q96JJ3)	0.959 ± 0.03
RABEP1 (UniProt Q15276)	1.03 ± 0.013
FSCN1 (UniProt Q16658)	0.979 ± 0.0099
HSDL1 (UniProt Q3SXM5)	0.911 ± 0.053
UniProt Q15121 and related entries	1.06 ± 0.051
Q5TBM3 and related entries (UniProt Q92598)	1.011 ± 0.0094
VMA21 (UniProt Q3ZAQ7)	0.9605 ± 0.0027
UniProt Q15777 and related entries	0.975 ± 0.012
UniProt Q16539 and related entries	1.01 ± 0.037
UniProt Q2KHT3 and related entries	0.915 ± 0.035
BEND3 (UniProt Q5T5X7)	0.967 ± 0.025
ACSF3 (UniProt Q4G176)	0.942 ± 0.055
UniProt Q5T3J3	1.05 ± 0.018

same assay, conditions: concentration: 2mM

Target	NP40-soluble protein abundance
UniProt Q5SQI0 and related entries	1 ± 0.059
UniProt Q4G0J3 and related entries	1.07 ± 0.025
UniProt Q5T0F9-2	1.09 ± 0.026
UniProt Q5JTH9 and related entries	1.01 ± 0.036
BOLA3 (UniProt Q53S33)	0.967 ± 0.021
UniProt Q5H8A4-5	0.971 ± 0.019
UniProt Q504Q3 and related entries	0.99 ± 0.045
UniProt Q5TDH0 and related entries	0.985 ± 0.034
UniProt Q15750 and related entries	1 ± 0.017
HERC1 (UniProt Q15751)	0.917 ± 0.076
UniProt Q5T5C0 and related entries	1.01 ± 0.062
HS1BP3 (UniProt Q53T59)	1.04 ± 0.049
PGGHG (UniProt Q32M88)	0.979 ± 0.023
ZC3H12A (UniProt Q5D1E8)	1.028 ± 0.0099
CCDC58 (UniProt Q4VC31)	1.02 ± 0.037
GRIPAP1 (UniProt Q4V328)	1.08 ± 0.091
UniProt Q16222 and related entries	0.943 ± 0.071
UniProt Q5PSV4 and related entries	1 ± 0.013

Target	NP40-soluble protein abundance
CCDC6 (UniProt Q16204)	1.06 ± 0.037
Q5T063 and related entries (UniProt Q9NZJ6)	1.01 ± 0.035
UniProt Q1ED39	1.08 ± 0.078
UniProt Q53H47 and related entries	1.03 ± 0.015
UniProt Q4VC05 and related entries	1.07 ± 0.073
Q5JVZ5 and related entries (UniProt Q96JJ3)	0.931 ± 0.05
RABEP1 (UniProt Q15276)	1.06 ± 0.044
FSCN1 (UniProt Q16658)	0.992 ± 0.027
HSDL1 (UniProt Q3SXM5)	0.85 ± 0.04
UniProt Q15121 and related entries	1.1 ± 0.14
Q5TBM3 and related entries (UniProt Q92598)	1.04 ± 0.034
VMA21 (UniProt Q3ZAQ7)	0.98211 ± 0.0008
UniProt Q15777 and related entries	0.966 ± 0.042
UniProt Q16539 and related entries	0.932 ± 0.075
UniProt Q2KHT3 and related entries	0.878 ± 0.035
BEND3 (UniProt Q5T5X7)	0.971 ± 0.028
ACSF3 (UniProt Q4G176)	0.834 ± 0.084
UniProt Q5T3J3	1.08 ± 0.063

same assay, conditions: concentration: 4mM

Target	NP40-soluble protein abundance
UniProt Q5SQI0 and related entries	0.99 ± 0.032
UniProt Q4G0J3 and related entries	1.13 ± 0.044
UniProt Q5T0F9-2	1.09 ± 0.033
UniProt Q5JTH9 and related entries	1.01 ± 0.015
BOLA3 (UniProt Q53S33)	0.935 ± 0.026
UniProt Q5H8A4-5	0.983 ± 0.034
UniProt Q504Q3 and related entries	1 ± 0.022
UniProt Q5TDH0 and related entries	0.9817 ± 0.0095
UniProt Q15750 and related entries	1.03 ± 0.063
HERC1 (UniProt Q15751)	0.941 ± 0.017
UniProt Q5T5C0 and related entries	0.995 ± 0.011
HS1BP3 (UniProt Q53T59)	1.04 ± 0.034
PGGHG (UniProt Q32M88)	1.01 ± 0.02
ZC3H12A (UniProt Q5D1E8)	1 ± 0.011
CCDC58 (UniProt Q4VC31)	0.987 ± 0.048
GRIPAP1 (UniProt Q4V328)	1.03 ± 0.037
UniProt Q16222 and related entries	0.976 ± 0.021
UniProt Q5PSV4 and related entries	0.978 ± 0.036

Target	NP40-soluble protein abundance
CCDC6 (UniProt Q16204)	0.979 ± 0.041
Q5T063 and related entries (UniProt Q9NZJ6)	0.967 ± 0.018
UniProt Q1ED39	1.07 ± 0.028
UniProt Q53H47 and related entries	1.02 ± 0.02
UniProt Q4VC05 and related entries	0.992 ± 0.023
Q5JVZ5 and related entries (UniProt Q96JJ3)	0.943 ± 0.043
RABEP1 (UniProt Q15276)	1.03 ± 0.016
FSCN1 (UniProt Q16658)	1 ± 0.015
HSDL1 (UniProt Q3SXM5)	0.925 ± 0.034
UniProt Q15121 and related entries	1.03 ± 0.042
Q5TBM3 and related entries (UniProt Q92598)	1 ± 0.025
VMA21 (UniProt Q3ZAQ7)	0.9534 ± 0.0027
UniProt Q15777 and related entries	0.975 ± 0.024
UniProt Q16539 and related entries	0.977 ± 0.026
UniProt Q2KHT3 and related entries	0.842 ± 0.062
BEND3 (UniProt Q5T5X7)	0.977 ± 0.046
ACSF3 (UniProt Q4G176)	0.949 ± 0.051
UniProt Q5T3J3	1.06 ± 0.059
